Library screen at single concentrations

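Growth of Mycobacterium tuberculosis over 3 days (7H9 medium with glucose and tyloxapol); the read-out is not stated. Compounds at 500 µM. Direction is inferred from retests: higher values go with more growth inhibition. Of about 18,000 compounds tested this way, about 1,400 (7.9%) reached 50% or more in at least one test.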

Results are given as percent effect.
The record does not define 0% and 100%; most values in the screen are far below 50% and negative numbers occur (in some assays of this library far below -100).
Compounds were drawn at random from those tested, without regard to their results.

| # | Compound | percent effect |
|---|---|---|
| 1 | `CCN(CC)c1ccc(C(=O)Nc2cc[nH]n2)cn1` | 70.85 |
| 2 | `Cc1ccnc(NS(=O)(=O)N2CCCCCC2)c1` | 6.369 |
| 3 | `Cc1nonc1CC(=O)N[C@@H]1COCC[C@H]1O` | 3.95 |
| 4 | `COc1ccc(SCC(=O)NC2CCN(C)CC2)cc1` | 32.59 |
| 5 | `CC(C#N)N1CCN(c2nccs2)CC1` (stereo unspecified) | -2.859 |
| 6 | `CC(C)Cc1cc(CNC(=O)CSc2cnn[nH]2)no1` | 49.42 |
| 7 | `Cc1cccc2c(=O)[nH]cnc12` | -10.18 |
| 8 | `CCC1(CC)CN(C(=O)NCCC(C)C)CCS1(=O)=O` | 53.47 |
| 9 | `Cn1cc(NC(=O)c2ccc(O)nc2)cc(Br)c1=O` | -40.46 |
| 10 | `CC(Sc1ccccn1)C(=O)NCCn1ccnc1` (stereo unspecified) | 9.407 |
| 11 | `CC(C)N1CCC(N2CCNCC2CCO)CC1` (stereo unspecified) | -16.39 |
| 12 | `COc1ccc2c(c1)C=C(S(N)(=O)=O)CC2` | 9.754 |
| 13 | `O=C(NCCNCc1cccnc1)c1ccco1` | 36.72 |
| 14 | `CCOc1ccc(Cl)cc1CNCCNCC(C)O` (stereo unspecified) | 48.94 |
| 15 | `NC(=O)C1CCN(CCCNCc2ccc(Cl)s2)CC1` | 22.61 |
| 16 | `CCSCC(C)N(C)CC(=O)Nc1c(C)n[nH]c1C` (stereo unspecified) | 9.504 |
| 17 | `c1ccc(COCc2nc(C3CCCNC3)no2)cc1` (stereo unspecified) | 17.66 |
| 18 | `CCC1(C(=O)NCC2CCCNC2)CCCC1` (stereo unspecified) | -6.516 |
| 19 | `CN(C)C(=O)C1CCCN(C(=O)c2cccnc2)C1` (stereo unspecified) | 0.03648 |
| 20 | `CC(CN[C@@H](C)CO)c1ccccc1` (stereo partly specified) | 31.26 |
| 21 | `CN(CC1CCOC1)C(=O)c1cc(F)ccc1F` (stereo unspecified) | 12.16 |
| 22 | `CCCS(=O)(=O)NC1CCN(Cc2nnc(C)o2)CC1` | -6.338 |
| 23 | `Nc1cnccc1N1CCCCC1` | 10.53 |
| 24 | `Cc1c(C(=O)N2CCCC2)cnn1-c1ccc(F)cc1` | -9.698 |
| 25 | `NC(=O)CCc1nc(-c2cccnc2)no1` | 10.82 |
| 26 | `CN(C)c1cc(CNC(=O)C2CCCO2)ccn1` (stereo unspecified) | 7.874 |
| 27 | `CCOC(=O)N1CCC(C(N)=O)CC1` | 19.14 |
| 28 | `COCCNC(=O)COc1cc(Cl)ccc1C(=O)OC` | 24.98 |
| 29 | `CCSCC(C)N(C)C(=O)[C@@H](N)CC` (stereo partly specified) | 4.651 |
| 30 | `Nc1ccn(-c2ncccc2F)n1` | 37.49 |
| 31 | `Cc1cc(C#N)ccc1CO` | 24 |
| 32 | `N#Cc1ccnc(OC(F)F)c1` | -11.29 |
| 33 | `Cc1ccc(S(=O)(=O)N2CC[C@H](O)C2)cc1N(C)C` | -1.74 |
| 34 | `Cc1noc(C)c1C(=O)NC1CCN(CC2CC2)CC1` | -10.32 |
| 35 | `CN(C)c1cc(CNC(=O)c2ccccc2F)ccn1` | 38.77 |
| 36 | `CN(Cc1ccncc1)S(=O)(=O)c1ncn(C)c1Cl` | 3.896 |
| 37 | `NCCCC(=O)Nc1cc(C(F)(F)F)c[nH]c1=O` | 13.29 |
| 38 | `CCC(=O)N1CCN(S(=O)(=O)c2ccc(C)s2)CC1` | 38.3 |
| 39 | `CC(Oc1ccc(Cl)cc1)C(=O)N(C)C` (stereo unspecified) | 50.05 |
| 40 | `c1cc(-c2ncco2)ccn1` | 5.973 |
| 41 | `C[C@H](c1ccc(Cl)cc1)n1c(CCN)n[nH]c1=O` | 51.91 |
| 42 | `C=C(C)CN1C(=O)Nc2ccccc2S1(=O)=O` | 66.8 |
| 43 | `Cc1cc(NC(=O)c2ccc(F)cc2)[nH]n1` | 20.6 |
| 44 | `COC(=O)CCN1CCN(CC2CCCC2)C(=O)C1` | 40.79 |
| 45 | `c1ccc(N2CCC(N3CCCC3)CC2)nc1` | 1.113 |
| 46 | `CC(CNC(=O)C1=NN(C)C(=O)CC1)N1CCCC1` (stereo unspecified) | -11.77 |
| 47 | `CCCN(CCO)Cc1nc(CC(C)C)no1` | 9.488 |
| 48 | `CCNC(=O)c1cccc(CN)c1` | 0.5806 |
| 49 | `CCc1cc(C(=O)NCCS(=O)(=O)N(C)C)cs1` | 49.68 |
| 50 | `COc1ccc(CCN2CCCNCC2)cc1` | 71.94 |
| 51 | `O=C1C=CC(=O)N1C1CCCCC1` | 0.5454 |
| 52 | `CC(N)c1nc(-c2ccc3c(c2)OCO3)c[nH]1` (stereo unspecified) | 58.2 |
| 53 | `CC(=O)c1cc(CN2CC[C@](C)(O)[C@@H](O)C2)n(C)c1` | 1.519 |
| 54 | `COC(C)(C)c1noc(-c2cccc(C)n2)n1` | -15.6 |
| 55 | `CCC(=O)N1CCCN(C(=O)C2(N)CCCCC2)CC1` | 2.594 |
| 56 | `CO[C@H]1[C@@H]2CC[C@H]1CN(C(=O)c1cc(Cl)c[nH]c1=O)C2` | 9.297 |
| 57 | `CCOc1ccc(CC(=O)N(C)[C@H]2COC[C@@H]2O)cc1` | -0.3547 |
| 58 | `Cc1nn(C)cc1NC(=O)NC(C)c1ccccn1` (stereo unspecified) | 8.327 |
| 59 | `CCN1CCCN(C(=O)c2c(F)cccc2F)CC1` | 14.46 |
| 60 | `CCc1ccc(CN2CCN(C(=O)N(C)C)CC2)o1` | 60.27 |
| 61 | `CNCCN1C(=O)c2ccccc2C1=O` | 10.57 |
| 62 | `O=C1COCC2(CC2)N1` | 3.545 |
| 63 | `CN(C(=O)CSc1cnn[nH]1)c1ccccc1` | 26.51 |
| 64 | `CCOc1ccc(S(=O)(=O)N[C@@H](C)c2cncs2)cn1` | 32.13 |
| 65 | `CCO[C@H]1CN(CCn2cc(Cl)cn2)C[C@@H]1O` | 20.54 |
| 66 | `NC1CCc2sccc2NC1=O` (stereo unspecified) | 23.04 |
| 67 | `CSc1cccc(F)c1CN` | 11.62 |
| 68 | `CN(C)c1cc(CNc2ncnc3[nH]ncc23)ccn1` | 31.52 |
| 69 | `COc1cccc(NCCC#N)c1` | 30.24 |
| 70 | `COc1ccccc1C(O)c1ccccn1` (stereo unspecified) | 13.16 |
| 71 | `O=C1CC2(CCc3ccccc32)CN1` (stereo unspecified) | 47.07 |
| 72 | `NC(=O)C1CCCN(Cc2ccc(Cl)cc2)C1` (stereo unspecified) | 13.13 |
| 73 | `Cc1ccc(C)c(NC(=O)CCN2CCCC2)c1` | 24.72 |
| 74 | `CS(=O)(=O)CCNS(=O)(=O)c1c(Cl)cccc1Cl` | 17.56 |
| 75 | `CN(Cc1nccs1)c1cc([C@H]2C[C@@H](O)C2)nc(N)n1` | 16.87 |
| 76 | `O=C1CCC(=O)c2ccccc2N1` | 4.366 |
| 77 | `Cc1cccc(C2NCCNC2=O)c1` (stereo unspecified) | -3.125 |
| 78 | `CN(CC(N)=O)C(=O)Cc1ccc(OC(F)(F)F)cc1` | 31.77 |
| 79 | `CC(CCN)N(C)Cc1ccccc1` (stereo unspecified) | 10.78 |
| 80 | `O=C(Cc1ccc(F)c(F)c1)N1CCCO1` | 20.84 |
| 81 | `Cc1ccc(NC(=O)NCC(=O)NC(C)(C)C)cc1` | 37.53 |
| 82 | `CSc1ncc(C(=O)NCC2CCOC2)cn1` (stereo unspecified) | 20.05 |
| 83 | `CC(CCNC(=O)Nc1ncnn1C)N1CCCCC1` (stereo unspecified) | 2.091 |
| 84 | `C[C@@H](CO)NC(=O)c1ccccc1NCc1ccco1` | 16.47 |
| 85 | `Cn1c(CCN)nc2cc(F)ccc21` | 45.06 |

For reference, 6 entries once more:

Compound,percent effect
Cc1noc(C)c1C(=O)NC1CCN(CC2CC2)CC1,-10.32
Cc1ccc(C)c(NC(=O)CCN2CCCC2)c1,24.72
N#Cc1ccnc(OC(F)F)c1,-11.29
O=C(NCCNCc1cccnc1)c1ccco1,36.72
O=C1C=CC(=O)N1C1CCCCC1,0.5454
CC(C#N)N1CCN(c2nccs2)CC1 (stereo unspecified),-2.859

From ChEMBL document CHEMBL3988442, “University of Dundee, Small-Polar-MMV Screening Library” (2021).